From US20110263539A1, “SHIP 1 MODULATOR COMPOUNDS” (THE UNIVERSITY OF BRITISH COLUMBIA, priority 2006, published 2011)
At least one structure is not confirmed: it was looked up by name or label, or the drawing left a doubt.

How the values were obtained:
[1] = system: SHIP enzyme; test: In vitro SHIP enzyme assay (Assay 1); assay type: biochemical; settings: 100 μM inositol-1,3,4,5-tetrakisphosphate, Malachite Green; further: key: a ‘+’ indicates a positive result for desired activity; a ‘−’ indicates a negative result for desired activity
Experimental: Assay 1) In vitro testing in a SHIP enzyme assay. Test compounds were dissolved in a suitable solvent (e.g. EtOH, DMSO and others) and diluted into aqueous buffer (20 mM Tris HCl, pH 7.5 and 10 mM MgCl2). SHIP enzyme assays were performed in 96-well microtitre plates with 10 ng of enzyme/well in a total volume of 25 μL of 20 mM Tris HCl, pH 7.5 and 10 mM MgCl2. SHIP enzyme was incubated with test extracts (provided in solvent) or vehicle for 15 min at 23° C. before the addition of 100 μM inositol-1,3,4,5-tetrakisphosphate (Echelon Biosciences Inc, Salt Lake City, Utah). After 20 min at 37° C. and the amount of inorganic phosphate released assessed by the addition of Malachite Green reagent and absorbance measurement at 650 nm.
For in vitro testing in the SHIP enzyme assay, AQX-016A and Compound 100 were dissolved in EtOH and diluted into aqueous buffer (20 mM Tris HCl, pH 7.5 and 10 mM MgCl2). The actual concentration of drug in solution was determined by optical density measurement at 280 nm (λmax for both compounds) after high speed centrifugation at 14 000×g for 30 min to remove precipitated drug. […]
In vitro SHIP enzyme assay. […] After 20 min at 37° C. and the amount of inorganic phosphate released assessed by the addition of Malachite Green reagent and absorbance measurement at 650 nm. […] Enzyme data are expressed as the mean of triplicates +/−SEM. […]

[2] = system: neutrophil myeloperoxidase (MPO) activity; test: Mouse acute cutaneous anaphylaxis model (Assay 5); assay type: in vivo, CD1 mice; settings: topically applied vs vehicle control-treated ear
Experimental: Assay 5) Mouse acute cutaneous anaphylaxis model. 6-8 week old CD1 mice
(§1) (University of British Columbia Animal Facility, Vancouver, BC) were sensitized to the hapten DNP by cutaneous application of 25 μL of 0.5% dinitrofluorobenzene (DNFB) (Sigma, Oakville, Ont) in acetone to the shaved abdomen of mice for two consecutive days. 24 hrs later, test substances (dissolved in 10 μL of 1:2 DMSO:MeOH) were painted on the right ear while the left ear received vehicle control. 30 min after drug application, DNFB was applied to both ears to induce mast cell degranulation. A 6 mm punch was taken from the ear and immediately frozen on dry ice for subsequent determination of neutrophil myeloperoxidase (MPO) activity.
as §1, with “Mouse acute cutaneous anaphylaxis model. 6-8 week old CD1 mice (University” for “(University”, “[…] Compound 100's ability to inhibit cutaneous anaphylaxis” for “A 6 mm punch”, “assessed. […]” for “taken from the ear and immediately frozen on dry ice for subsequent determination of neutrophil myeloperoxidase (MPO) activity.”

[3] = system: plasma TNFα; test: Mouse endotoxemia model (Assay 6); assay type: in vivo, C57B16 mice; settings: oral administration 30 min prior to LPS, 2 hrs
Experimental: (§2) Assay 6) Mouse endotoxemia model. 6-8 week old C57B16 mice (VCHRI Mammalian Model of Human Disease Core Facility, Vancouver, BC) were orally administered the test compound 30 min prior to an IP injection of 2 mg/kg of LPS (E. Coli serotype 0111:B4, Sigma, Oakville, Ont). Blood was drawn 2 hrs later for determination of plasma TNFα by ELISA.
as §2, with “Mouse” for “Assay 6) Mouse”, “indicated dose of AQX-016A, Compound 100 or dexamethasone or carrier” for “test compound”, “ELISA. Results are representative of 3 independent experiments. (FIGS. 7D and 9)” for “ELISA.”
AQX-016A's ability to provide protection by inhibiting inflammatory reactions in vivo was assessed in mouse models. The mouse model of endotoxic shock involves intraperitoneal (IP) injection of bacterial LPS and measurement of serum TNFα levels 2 hrs later. We orally administered AQX-016A or the steroidal drug dexamethasone to mice 30 min prior to the LPS challenge.

[4] = system: SHIP+/+ bone marrow derived macrophages; test: LPS stimulation of SHIP+/+ bone marrow derived macrophages; assay type: cell-based, mice; settings: SHIP+/+ but not SHIP−/− macrophages
Experimental: Bone marrow cells were aspirated from 4 to 8 week old C57B16×129Sv mixed background mice and SHIP and SHIP cells prepared as described previously. Bone marrow derived macrophages from SHIP^+/+ and SHIP^−/− mice were obtained and maintained in IMDM supplemented with 10% FCS, 150 μM MTG, 2% C127 cell conditioned medium as a source of macrophage colony stimulating factor (M-CSF) (macrophage medium)
LPS stimulation of macrophages. For the analysis of LPS-stimulated TNFα production, 2×10^5 cells were plated the night before in 24 well plates in macrophage medium. The next day, the medium was changed and AQX-016A or carrier was added to cells at the indicated concentrations for 30 min prior to the addition of 10 ng/mL LPS. Supernatants were collected for TNFα determination by ELISA (BD Biosciences, Mississauga, ON, Canada). For analysis of intracellular signaling, 2×10^6 cells were plated the night before in 6 cm tissue culture plates. The next day, the cells were cultured in macrophage medium without M-CSF for 1 hr at 37° C. and then pretreated with AQX-016A or carrier for 30 min prior to the addition of 10 ng/mL LPS for 15 min. Cells were washed with 4° C. […]
The target specificity and biological efficacy of AQX-016A were assessed by comparing AQX-016A's effects on PI3K-regulated processes in primary SHIP^+/+ vs SHIP^−/− macrophages and mast cells. […]

[5] = system: SHIP+/+ and SHIP−/− bone marrow derived mast cells; test: Stimulation of SHIP+/+ and SHIP−/− mast cells by FcεRI crosslinking; assay type: cell-based, mice; settings: for inhibition of IgE+antigen-induced calcium entry: SHIP+/+ vs SHIP−/− mast cells
[6] = system: mast cell degranulation; test: Mast cell degranulation in DNP-sensitized mice, [3H]-Tdr ear ratio; assay type: in vivo, CD1 mice; settings: ratio of [3H]-Tdr test ear vs control ear
[7] = system: LNCaP cells; test: PKB activation in LNCaP cells; assay type: cell-based, human; settings: doses up to 60 μM
Experimental: The ability of AQX-016A to inhibit activation of PIP3-dependent downstream signalling proteins in SHIP^+/+ vs SHIP^−/− cells was assessed. LPS stimulation of macrophages results in PKB phosphorylation. […] Similar protein loading was confirmed by reblotting with either antibodies to PKB or Grb2. […] Thus, AQX-016A inhibits PIP3-regulated intracellular signal transduction events in SHIP expressing hematopoietic cells, but not in SHIP-deficient hematopoietic or non-hematopoietic cells.

| Compound | Assay Number 1: SHIP enzyme assay [1] | allergen (DNFB)-induced inflammation [2] | LPS-induced plasma/serum TNFα levels [3] | LPS-stimulated PKB phosphorylation [4] | phosphorylation of PKB, p38MAPK and ERK ([5]; SHIP+/+ but not SHIP−/− mast cells) | inhibition of IgE+antigen-induced calcium entry [5] | mast cell degranulation [6] | PKB phosphorylation [7] |
| --- | --- | --- | --- | --- | --- | --- | --- | --- |
| Cc1cc(O)c(O)c2c1[C@]1(C)CCC3C(C)(C)CCC[C@]3(C)[C@H]1C2 (stereo partly drawn) [AQX-016A] | + | able to inhibit | reduced the level of serum TNFα | preferentially inhibited | inhibited | selectively inhibited | inhibited mast cell degranulation |  |
| O=c1cc(N2CCOCC2)oc2c(-c3ccccc3)cccc12 [LY294002, reference compound] |  |  |  |  |  | inhibited both SHIP^+/+ and SHIP^−/− mast cells to the same extent |  | efficiently suppressed |
